In article PMC7870846, “Incorporation of sensing modalities into de novo designed fluorescence-activating proteins” (Nature Communications, 2021) one finds folded concentration data, which are given here for one molecule.

The subject of this data set is m14_aBCLXL. The experiment in a line: Titration of BCLXL_m58 into m14_aBCLXL (bimolecular association model). Type of data set: binding. Conditions: of 7.64 µM total.

B1: m14_aBCLXL: aBCLXL fused to split mFAP fragment m14 (protein)
chain: SRAAQLLPGTWQATFTNEDGQTSQGQWHFQPRSPYTMDIVAQGTISDGRPIVGYGKATVKTPGSSGGSGGSGADPKKVLDKAKDRAENVVRKLKKELEELYKEARKLDLTQEMRDRIRRTAIAARFQAHGDIFHAIKHAKEEARKLKKAGLVNSQQLDELKRRLRELDEEAEQRAEKLGKEFRLKLEYG
B1 displayed a folded concentration of 4.06 µM.
